Reference: PubChem BioAssay AID1159584 (Peter MacCallum Cancer Centre, 2016)
The deposit covers about 18,000 reagents; below is a part drawn at random. Further read-outs or replicates are left out here. Not stated in the record: the amount of reagent, the time to read-out.

Purpose: 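Knock-downs that harm CDH1-null cells more than parental MCF10A cells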 (primary screen)
System: human MCF10A breast epithelial cells, parental and CDH1-null
Knock-down reagent: siRNA against human genes
Read-out: 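ATP luminescence (CellTiter-Glo) viability per line relative to mean mock wells over all plates, and the ratio of CDH1-null to parental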
Scale: CDH1-null / parental viability ratio: higher = CDH1-null cells survive relatively better than parental; CDH1-null viability vs mock: higher = more viable CDH1-null cells

no.	gene symbol	CDH1-null / parental viability ratio	CDH1-null viability vs mock (fraction of mock)
1	EEPD1 (GeneID 80820)	0.95	0.78
2	CAND2 (GeneID 23066)	1.09	0.5
3	CPAP (GeneID 55835)	0.98	0.49
4	MID2 (GeneID 11043)	0.96	0.96
5	BDNF (GeneID 627)	0.92	0.82
6	PAN2 (GeneID 9924)	1	0.76
7	TRHDE (GeneID 29953)	1.12	1.02
8	PAN3 (GeneID 255967)	1.15	0.97
9	PIK3CD-AS1 (GeneID 644997)	1.2	0.66
10	MUC17 (GeneID 140453)	0.96	0.67
11	MTHFD1L (GeneID 25902)	1.01	0.89
12	CAMK4 (GeneID 814)	0.77	0.68
13	TRRAP (GeneID 8295)	0.97	0.72
14	LRP5L (GeneID 91355)	1.26	0.82
15	OR2A1 (GeneID 346528)	1.18	1.23
16	TSPYL1 (GeneID 7259)	0.8	0.66
17	ZBTB35 (GeneID 7690)	1.33	0.64
18	HOXB5 (GeneID 3215)	0.86	0.62
19	TUBB1 (GeneID 81027)	0.8	0.53
20	INSRR (GeneID 3645)	1	0.86
21	MXD4 (GeneID 10608)	0.96	0.72
22	PHGDH (GeneID 26227)	1.1	0.92
23	FCRLA (GeneID 84824)	0.86	0.76
24	NFKB2 (GeneID 4791)	0.83	0.78
25	SLCO2B1 (GeneID 11309)	1.06	0.72
26	TMEM106B (GeneID 54664)	0.87	0.46
27	ABCB9 (GeneID 23457)	1.09	1.02
28	KIAA1191 (GeneID 57179)	1.13	0.7
29	FUT2 (GeneID 2524)	0.85	0.68
30	NEIL3 (GeneID 55247)	1.06	1.08
31	B3GALT2 (GeneID 8707)	1.21	1.04
32	API5 (GeneID 8539)	1.1	1.12
33	CYP2A7 (GeneID 1549)	1.04	0.77
34	ACOT4 (GeneID 122970)	0.94	0.75
35	SLC6A8 (GeneID 6535)	1.03	1.01
36	ARSJ (GeneID 79642)	1.21	0.64
37	ZNF273 (GeneID 10793)	0.89	0.47
38	PRG3 (GeneID 10394)	1.07	1.23
39	ACAP2 (GeneID 23527)	1.05	0.92
40	NUP88 (GeneID 4927)	1.19	0.93
41	NR3C2 (GeneID 4306)	1	1.04
42	ALDH1A1 (GeneID 216)	0.98	0.81
43	CAPN11 (GeneID 11131)	1.15	0.86
44	LRRC42 (GeneID 115353)	0.9	0.7
45	ZNF674 (GeneID 641339)	1.23	0.81
46	C1orf50 (GeneID 79078)	1.25	0.3
47	TTR (GeneID 7276)	0.88	0.63
48	MBTPS2 (GeneID 51360)	1.1	0.86
49	SPRYD7 (GeneID 57213)	1.29	0.98
50	KCNN3 (GeneID 3782)	1.27	1
51	PRRX1 (GeneID 5396)	1.11	1
52	CILK1 (GeneID 22858)	0.88	0.91
53	DNM1 (GeneID 1759)	1.27	1.12
54	FAAH (GeneID 2166)	0.86	0.76
55	LRP6 (GeneID 4040)	0.9	0.9
56	MYL12A (GeneID 10627)	1.27	0.7
57	ATG10 (GeneID 83734)	1.01	0.69
58	SLC30A1 (GeneID 7779)	0.92	0.96
59	ILDR2 (GeneID 387597)	0.9	0.92
60	LGALS9C (GeneID 654346)	0.95	0.74
61	UNK (GeneID 85451)	0.83	0.7
62	SPDEF (GeneID 25803)	1.06	1.15
63	ATP2A1 (GeneID 487)	0.93	0.82
64	CUEDC1 (GeneID 404093)	1.28	0.95
65	CIAO2B (GeneID 51647)	1.01	0.81
66	CPT2 (GeneID 1376)	1.01	0.84
67	LARP1 (GeneID 23367)	0.85	0.7
68	ACOX1 (GeneID 51)	1.15	1.06
